Data: US20150167001

The chains behind the UniProt entries cited, without tags or fusion partners.
UniProt O75626, whole entry: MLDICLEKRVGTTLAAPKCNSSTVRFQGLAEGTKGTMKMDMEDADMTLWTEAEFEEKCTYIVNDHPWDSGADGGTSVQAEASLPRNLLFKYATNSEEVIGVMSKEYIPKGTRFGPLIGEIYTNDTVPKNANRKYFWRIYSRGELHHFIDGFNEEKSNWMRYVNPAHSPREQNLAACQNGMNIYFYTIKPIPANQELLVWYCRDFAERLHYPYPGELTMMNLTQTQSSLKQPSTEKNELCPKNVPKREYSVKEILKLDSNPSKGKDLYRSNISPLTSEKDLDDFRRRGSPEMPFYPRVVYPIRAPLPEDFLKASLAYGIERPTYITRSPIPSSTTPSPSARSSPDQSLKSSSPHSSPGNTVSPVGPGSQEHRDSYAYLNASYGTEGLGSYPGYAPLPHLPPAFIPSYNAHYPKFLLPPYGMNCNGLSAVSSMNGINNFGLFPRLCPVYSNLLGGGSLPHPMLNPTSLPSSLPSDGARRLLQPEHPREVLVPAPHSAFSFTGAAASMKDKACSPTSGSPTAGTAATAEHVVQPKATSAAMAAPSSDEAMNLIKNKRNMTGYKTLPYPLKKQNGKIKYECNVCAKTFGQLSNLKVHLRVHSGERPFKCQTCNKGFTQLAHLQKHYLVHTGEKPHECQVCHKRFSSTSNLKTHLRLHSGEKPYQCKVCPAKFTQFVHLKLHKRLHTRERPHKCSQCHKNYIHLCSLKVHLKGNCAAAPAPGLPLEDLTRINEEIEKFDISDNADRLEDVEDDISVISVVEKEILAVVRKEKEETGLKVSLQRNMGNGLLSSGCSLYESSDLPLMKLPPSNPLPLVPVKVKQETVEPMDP

Target: BLIMP-1 (Homo sapiens) (UniProt O75626)
Assay: binding assay
Conditions: ChIP-qPCR, protein in cells, protein details: endogenous in BEAS-2B cells

Sequence	binding result (strongest of three sites, delayed after poly I:C)	binding result (modest binding after poly I:C)
TAAATAAAATGAAATAAATTGAAAAT (double strand) [IFN-λ1 promoter distal ISRE/PRDI site (F2/R2)]	binds	–
TTCCAATTACCTTTTCACTT (double strand) [IFN-λ1 promoter proximal ISRE/PRDI site (F4/R4)]	–	binds more weakly

Results from cells or extracts need not show a direct contact. The comparison behind a weaker result is the experiment's own reference, which may not be listed here.
